The chains are these.
B1: argininosuccinate synthase 1 (ASS1), wild type, GFP-tagged (enzyme, UniProt P00966 1-412)
chain: MSSKGSVVLAYSGGLDTSCILVWLKEQGYDVIAYLANIGQKEDFEEARKKALKLGAKKVFIEDVSREFVEEFIWPAIQSSALYEDRYLLGTSLARPCIARKQVEIAQREGAKYVSHGATGKGNDQVRFELSCYSLAPQIKVIAPWRMPEFYNRFKGRNDLMEYAKQHGIPIPVTPKNPWSMDENLMHISYEAGILENPKNQAPPGLYTKTQDPAKAPNTPDILEIEFKKGVPVKVTNVKDGTTHQTSLELFMYLNEVAGKHGVGRIDIVENRFIGMKSRGIYETPAGTILYHAHLDIEAFTMDREVRKIKQGLGLKFAELVYTGFWHSPECEFVRHCIAKSQERVEGKVQVSVLKGQVYILGRESPLSLYNEELVSMNVQGDYEPTDATGFININSLRLKEYHRLQSKVTAK
B2: argininosuccinate synthase 1 (ASS1) p.Thr323Ile, GFP-tagged (enzyme, UniProt P00966 1-412)
chain: MSSKGSVVLAYSGGLDTSCILVWLKEQGYDVIAYLANIGQKEDFEEARKKALKLGAKKVFIEDVSREFVEEFIWPAIQSSALYEDRYLLGTSLARPCIARKQVEIAQREGAKYVSHGATGKGNDQVRFELSCYSLAPQIKVIAPWRMPEFYNRFKGRNDLMEYAKQHGIPIPVTPKNPWSMDENLMHISYEAGILENPKNQAPPGLYTKTQDPAKAPNTPDILEIEFKKGVPVKVTNVKDGTTHQTSLELFMYLNEVAGKHGVGRIDIVENRFIGMKSRGIYETPAGTILYHAHLDIEAFTMDREVRKIKQGLGLKFAELVYIGFWHSPECEFVRHCIAKSQERVEGKVQVSVLKGQVYILGRESPLSLYNEELVSMNVQGDYEPTDATGFININSLRLKEYHRLQSKVTAK
B3: argininosuccinate synthase 1 (ASS1) p.Leu313Met, GFP-tagged (enzyme, UniProt P00966 1-412)
chain: MSSKGSVVLAYSGGLDTSCILVWLKEQGYDVIAYLANIGQKEDFEEARKKALKLGAKKVFIEDVSREFVEEFIWPAIQSSALYEDRYLLGTSLARPCIARKQVEIAQREGAKYVSHGATGKGNDQVRFELSCYSLAPQIKVIAPWRMPEFYNRFKGRNDLMEYAKQHGIPIPVTPKNPWSMDENLMHISYEAGILENPKNQAPPGLYTKTQDPAKAPNTPDILEIEFKKGVPVKVTNVKDGTTHQTSLELFMYLNEVAGKHGVGRIDIVENRFIGMKSRGIYETPAGTILYHAHLDIEAFTMDREVRKIKQGMGLKFAELVYTGFWHSPECEFVRHCIAKSQERVEGKVQVSVLKGQVYILGRESPLSLYNEELVSMNVQGDYEPTDATGFININSLRLKEYHRLQSKVTAK

Results are given in words; binding and its absence hold for the method and conditions named. Binding seen in cells or lysates may run through a third protein. Some entries that bind do so weakly or less than the wild type. Where a sequence is shown, tags or fusion partners need not be part of it.

The assay concerns the target T1, protein arginine methyltransferase 7 (PRMT7), FLAG-tagged (human) (UniProt Q9NVM4).
T1 sequence: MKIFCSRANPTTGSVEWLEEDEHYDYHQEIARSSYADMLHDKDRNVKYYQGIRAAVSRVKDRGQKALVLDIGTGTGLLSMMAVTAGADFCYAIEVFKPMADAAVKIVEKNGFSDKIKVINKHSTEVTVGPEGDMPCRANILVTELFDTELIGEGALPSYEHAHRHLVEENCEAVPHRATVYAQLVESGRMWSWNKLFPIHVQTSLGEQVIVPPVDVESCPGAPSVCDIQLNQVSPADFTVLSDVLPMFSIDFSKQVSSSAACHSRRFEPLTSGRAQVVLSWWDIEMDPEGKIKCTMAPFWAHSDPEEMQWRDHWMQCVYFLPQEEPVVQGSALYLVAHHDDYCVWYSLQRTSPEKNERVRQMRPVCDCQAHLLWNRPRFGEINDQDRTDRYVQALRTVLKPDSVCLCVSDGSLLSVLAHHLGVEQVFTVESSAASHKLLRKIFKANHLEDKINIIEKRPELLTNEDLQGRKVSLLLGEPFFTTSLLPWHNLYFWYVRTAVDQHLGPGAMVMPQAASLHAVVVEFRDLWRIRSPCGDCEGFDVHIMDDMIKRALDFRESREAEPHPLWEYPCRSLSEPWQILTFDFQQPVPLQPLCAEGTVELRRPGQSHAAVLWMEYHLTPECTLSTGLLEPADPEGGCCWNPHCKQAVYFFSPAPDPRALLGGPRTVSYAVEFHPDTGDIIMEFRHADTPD
As to the kind of experiment: co-IP; HEK293 cells co-transfected with PRMT7-FLAG and ASS1-GFP (WT or mutant); NP-40 lysis buffer; PRMT7-FLAG precipitated with anti-FLAG M2 beads, 4°C, 4 h; western blot with anti-GFP and anti-FLAG M2. On the technique in general: In western blotting, separated proteins are transferred to a membrane and probed.
On to B1, for which the binding result is recorded as “binds”.

For B2, the binding entry was “binds weakly”.

Consider B3, for which the binding result was “binds”.

These data come from PMC8929347.
